PMC4999498
No constants are given. Whether binding was seen depends on the method and setting. In cells and extracts the contact can be indirect. Some binding calls cover weakened binding; strength is not graded here.

By UniProt entry, the sequences of proteins in these tests, tags left out. Where a name states a change or a piece, a line headed by the entry shows the natural chain unless it says otherwise.
UniProt P19973: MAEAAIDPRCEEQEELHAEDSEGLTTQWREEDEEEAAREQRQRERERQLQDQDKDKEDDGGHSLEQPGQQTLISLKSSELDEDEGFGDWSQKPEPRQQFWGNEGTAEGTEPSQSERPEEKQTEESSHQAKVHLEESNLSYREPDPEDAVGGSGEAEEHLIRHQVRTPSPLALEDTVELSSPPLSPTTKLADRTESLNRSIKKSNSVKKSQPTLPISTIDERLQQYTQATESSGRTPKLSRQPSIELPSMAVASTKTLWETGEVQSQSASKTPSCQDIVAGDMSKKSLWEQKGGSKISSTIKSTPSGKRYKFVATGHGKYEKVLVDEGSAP

Columns and labels:
[1] = target: Flag-EGFP-tagged S209A mouse Lsp1, expressed in 293T cells (mouse) (UniProt P19973); assay: co-IP; lysates of 293T cells ectopically expressing OGT and Flag-EGFP-tagged WT or S209A Lsp1; IP with anti-Flag, immunoblot for OGT; IP lysis buffer 50 mM Tris-Cl pH 8.0, 150 mM NaCl, 5 mM EDTA, 0.5% Triton X-100, 0.1% sodium deoxycholate, 4 °C overnight
[2] = target: Flag-EGFP-tagged wild-type mouse Lsp1 (lymphocyte-specific protein-1), expressed in 293T cells (mouse) (UniProt P19973); assay: as above

binding [1]: binds | binding [2]: binds
B1: mouse O-GlcNAc transferase (OGT), expressed in 293T cells (enzyme, UniProt Q8CGY8 1-1046)
chain: MASSVGNVADSTEPTKRMLSFQGLAELAHREYQAGDFEAAERHCMQLWRQEPDNTGVLLLLSSIHFQCRRLDRSAHFSTLAIKQNPLLAEAYSNLGNVYKERGQLQEAIEHYRHALRLKPDFIDGYINLAAALVAAGDMEGAVQAYVSALQYNPDLYCVRSDLGNLLKALGRLEEAKACYLKAIETQPNFAVAWSNLGCVFNAQGEIWLAIHHFEKAVTLDPNFLDAYINLGNVLKEARIFDRAVAAYLRALSLSPNHAVVHGNLACVYYEQGLIDLAIDTYRRAIELQPHFPDAYCNLANALKEKGSVAEAEDCYNTALRLCPTHADSLNNLANIKREQGNIEEAVRLYRKALEVFPEFAAAHSNLASVLQQQGKLQEALMHYKEAIRISPTFADAYSNMGNTLKEMQDVQGALQCYTRAIQINPAFADAHSNLASIHKDSGNIPEAIASYRTALKLKPDFPDAYCNLAHCLQIVCDWTDYDERMKKLVSIVAEQLEKNRLPSVHPHHSMLYPLSHGFRKAIAERHGNLCLDKINVLHKPPYEHPKDLKLSDGRLRVGYVSSDFGNHPTSHLMQSIPGMHNPDKFEVFCYALSPDDGTNFRVKVMAEANHFIDLSQIPCNGKAADRIHQDGIHILVNMNGYTKGARNELFALRPAPIQAMWLGYPGTSGALFMDYIITDQETSPAEVAEQYSEKLAYMPHTFFIGDHANMFPHLKKKAVIDFKSNGHIYDNRIVLNGIDLKAFLDSLPDVKIVKMKCPDGGDNPDSSNTALNMPVIPMNTIAEAVIEMINRGQIQITINGFSISNGLATTQINNKAATGEEVPRTIIVTTRSQYGLPEDAIVYCNFNQLYKIDPSTLQMWANILKRVPNSVLWLLRFPAVGEPNIQQYAQNMGLPQNRIIFSPVAPKEEHVRRGQLADVCLDTPLCNGHTTGMDVLWAGTPMVTMPGETLASRVAASQLTCLGCLELIAKSRQEYEDIAVKLGTDLEYLKKIRGKVWKQRISSPLFNTKQYTMELERLYLQMWEHYAAGNKPDHMIKPVEVTESA
